The target in the test is Woc (Drosophila (endogenous in embryos)). Kind of test: co-IP; 30 µl nuclear extract of early Drosophila embryos (0–12 h, TRAX) with α-HP1c (2G2), α-Woc or buffer overnight at 4°C in BC200; protein A/G sepharose; washed with BC300; western blotting. A general note: Immunoblotting shows a protein as a band on a membrane.

These are yes or no findings as the source states them, for the method shown. Binding seen in cells or lysates may run through a third protein. A result given as binding can be weak or reduced; the word gives no strength.

B1: HP1c (protein, UniProt Q9VCU6 1-237)
chain: MVKNEPNFVVERIMDKRITSEGKVEYYIKWRGYTSADNTWEPEENCDCPNLIQKFEESRAKSKKRGEKKPKCEEIQKLRGYERGLELAEIVGATDVTGDIKYLVRWQFCDEFDLVPSAQIVEKDPQMLIDYFQKMAPYSRHIAMRMKGVPEELRLAASRTSYPHISSAPVEVPPEVDQSAELAGHLGGIAPQVDQAPQHHAPMDLANDTDDLASVSYSIPVPGVGDIAIDVPMAENQ
B1: the binding result is listed as “binds”.

The record behind these values is PMC2662408.
